# From PubChem BioAssay AID624291 (National Center for Advancing Translational Sciences (NCATS), 2012)
# The whole screen tested about 350,000 compounds, of which about 220 (0.063%) were called active. Inconclusive means that the source gave no clear call. Such entries were picked first, then a sample of the others. Calls come from the whole dose curve; as a rule, active = well fitted activation curve with a large enough effect; inconclusive = small, poorly fitted or top-dose-only effect; inactive = no such curve, though single readings can be large or run the other way. Potencies of inconclusive entries are doubtful fits and often do not repeat.
# Test: qHTS for Activators of Integrin-Mediated Alleviation for Muscular Dystrophy; note: nearly all actives have a fitted effect of over 60% in size;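 for activation: 100% = response of the positive control SU9516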
# Conditions: alpha7betagal myoblasts, beta-gal FDG fluorescence, 48 h; activation: at 38.3 µM (top of the series)
# Method in brief: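 Alpha7betagal+/- myoblasts (passage 13) were plated 16-24 hr, then exposed to compounds (1:260 dilution of DMSO stock) for 48 hours at 37C. After MPER lysis, β-galactosidase reporter activity was read as FDG fluorescence (ex 480/em 540) after 30 minutes.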
# Potency is the fitted concentration of half-maximal effect.
SMILES,Potency,activation
O=c1c2c(nc3cc(-c4ccc(Br)cc4)[nH]n13)CCCC2,"inconclusive: 1 µM [activator, full curve, poor fit]",–
CCOC(=O)c1ccc(-n2c(=S)sc3c(=O)[nH]c(C)nc32)cc1,inactive,–
CCc1ccccc1NC(=O)CC(O)(C(=O)OC)C(F)(F)F (stereo unspecified),"inconclusive: 28.2 µM [activator, single point]",–
Cc1ccc(C(=O)c2cc([N+](=O)[O-])ccc2N2CCOCC2)cc1C,inactive,–
Nc1ncc(Br)cc1S(=O)(=O)N1CCCCCC1,"inconclusive: 11.2 µM [activator, partial curve, poor fit]",–
CCOC(=O)CNC(=O)C12CC3CC(C1)CC(c1ccc(C)cc1)(C3)C2,"inconclusive: 14.1 µM [activator, single point]",–
COC(=O)C(C)Oc1ccc(Oc2nc(Cl)ccc2Cl)cc1 (stereo unspecified),"inconclusive: 3.55 µM [activator, single point]",–
CC(C)(C)c1ccc(/C=N/Nc2ccc(C(=O)O)cc2)cc1,inactive,–
COc1cc2ccccc2cc1C(=O)Nc1ccc(NC(=O)c2cccs2)cc1,"inconclusive: 2.51 µM [activator, single point]",–
O=C(CN1CCN(c2ccccn2)CC1)Nc1ccc(OCc2ccccc2)cc1,inactive,–
COc1ccc2oc(C(=O)OCC(=O)Nc3ccc(N4CCOCC4)cc3)c(C)c2c1,inactive,–
CCn1c(-c2cc3c(C(F)(F)F)nn(C)c3s2)n[nH]c1=S,inactive,–
CC(Sc1nnc(-c2ccccc2)c(-c2ccccc2)n1)C(=O)NCC1CCCO1 (stereo unspecified),"inconclusive: 0.891 µM [activator, full curve, poor fit]",–
COc1cccc(-c2csc(N3CCN(C(=O)C4CCCCC4)CC3)n2)c1,inactive,–
Cn1cccc1-c1nc2ccc(NC(=O)c3ccc([N+](=O)[O-])cc3)cc2[nH]1,inactive,–
CN(CC(=O)Nc1ccc(N2CCOCC2)cc1)C(=O)CSc1ccccc1F,"inconclusive: 28.2 µM [activator, single point]",–
Cc1ccc(S(=O)(=O)c2nc(-c3ccccc3)oc2NCCN2CCOCC2)cc1,inactive,–
Cc1cccc(-c2nnc(-c3ccc(N)cc3)o2)c1,inactive,–
C=C(C)n1c(=O)n(Cc2ccccc2C)c2ccccc21,"inconclusive: 22.4 µM [activator, single point]",–
CCN(C(=O)CSc1nc2ccccc2c(=O)n1-c1ccc(C)cc1)C1CCS(=O)(=O)C1 (stereo unspecified),"inconclusive: 5.01 µM [activator, single point]",–
Clc1ccc(Nc2ncnc3ccc(Br)cc23)cc1,–,inconclusive: 29% [activator]
O=C(COC(=O)c1cc[n+]([O-])cc1)Nc1ccc(Cl)c(C(F)(F)F)c1,"inconclusive: 2 µM [activator, partial curve, poor fit]",–
CCOc1ccc(-c2csc(NC(=O)CSC3=NC(=O)CN3C(C)=O)n2)c2ccccc12,"inconclusive: 28.2 µM [activator, single point]",–

# Quoted at random: 3 records from the list, in no set order.
SMILES,Potency,activation
CCOC(=O)c1ccc(-n2c(=S)sc3c(=O)[nH]c(C)nc32)cc1,inactive,–
CCOC(=O)CNC(=O)C12CC3CC(C1)CC(c1ccc(C)cc1)(C3)C2,"inconclusive: 14.1 µM [activator, single point]",–
O=C(CN1CCN(c2ccccn2)CC1)Nc1ccc(OCc2ccccc2)cc1,inactive,–

# More compounds.

SMILES,Potency,activation
COc1ccc2nc(C(F)(F)Cl)c(C#N)c(N)c2c1,inactive,–
CC1=NN(C(=O)c2ccccc2Cl)C(O)(c2cccnc2)C1 (stereo unspecified),inactive,–
NC(=O)c1ccccc1NC(=O)CCc1ccccc1,–,inactive: -2.62% [at 7.66 µM]
O=C1C2CCCCN2C(=O)N1CCN1CCN(c2ccc(F)cc2)CC1 (stereo unspecified),inactive,–
CN1CCN(CC(=O)N2CCn3c4c(c5cc(C6CCCCC6)ccc53)CCCC42)CC1 (stereo unspecified),inactive,–
CC1(C)Cc2ccccc2C(C(Cc2ccccc2)C(N)=O)=N1 (stereo unspecified),"inconclusive: 3.16 µM [activator, full curve, poor fit]",–
O=C(NCCCN1CCOCC1)c1ccc(S(=O)(=O)Nc2ccccc2F)cc1,inactive,–
CCNC(=O)CC1SC(=Nc2cccc(Cl)c2C)N(C)C1=O (stereo unspecified),"inconclusive: 0.447 µM [activator, full curve, poor fit]",–
O=C(CSc1nnc(CNC(=O)c2c(F)cccc2Cl)o1)NC1CCCCC1,"inconclusive: 5.01 µM [activator, single point]",–
CN(C)c1ccc(/C=C(/C#N)C(=O)Nc2nc3c(s2)CCN(Cc2ccccc2)C3)cc1,"inconclusive: 3.16 µM [activator, partial curve, poor fit]",–
CCC(CC)NC(=O)Nc1ccc(F)cc1F,"inconclusive: 1.41 µM [activator, single point]",–
Cc1ccc(S(=O)(=O)NC(=O)Nc2ccc(F)cc2)cc1,"inconclusive: 8.91 µM [activator, partial curve, poor fit]",–
Cc1cc(NC(=O)NC(=O)c2ccccc2F)no1,"inconclusive: 5.01 µM [activator, single point]",–
CCOC(=O)c1ccc(COC(=O)CNS(=O)(=O)c2ccccc2)cc1,"inconclusive: 28.2 µM [activator, single point]",–
CCCC(NC(=O)C(C)Sc1nnnn1C1CC1)c1ccccc1 (stereo unspecified),"inconclusive: 10 µM [activator, single point]",–
CC1Cc2ccccc2N1c1ncnc(N)c1[N+](=O)[O-] (stereo unspecified),"inconclusive: 5.01 µM [activator, full curve, poor fit]",–
CC1CCN(C(=O)CS(=O)(=O)Cc2ccccc2)CC1,"inconclusive: 4.47 µM [activator, partial curve, poor fit]",–
COc1ccc(C(=O)NC(=S)NNC(=O)c2ccccc2O)cc1,"inconclusive: 28.2 µM [activator, single point]",–
COc1ccc(N2C(=O)c3ccccc3NC2c2cccnc2)cc1 (stereo unspecified),"inconclusive: 22.4 µM [activator, single point]",–
CCC(=O)N1N=C(c2cccs2)CC1c1ccc(OC)cc1 (stereo unspecified),"inconclusive: 5.01 µM [activator, single point]",–
O=C(Cc1ccc(Cl)cc1)N1CCN(c2ccccc2)CC1,inactive,–
COc1cc(OC)cc(C(=O)NC(=S)Nc2ccc3[nH]c(=O)[nH]c3c2)c1,"inconclusive: 3.98 µM [activator, single point]",–
Cc1ccc(S(=O)(=O)N2CCCN(C(C)c3nc4ccccc4c(=O)[nH]3)CC2)cc1 (stereo unspecified),"inconclusive: 5.01 µM [activator, single point]",–
